The results in this text go back to PMC4139307, “Transforming Growth Factor-β1 Signaling Represses Testicular Steroidogenesis through Cross-Talk with Orphan Nuclear Receptor Nur77”.

By UniProt entry, the sequences of proteins in these tests, tags left out. Where a name states a change or a piece, a line headed by the entry shows the natural chain unless it says otherwise. Residues count along the entry.
UniProt P12813: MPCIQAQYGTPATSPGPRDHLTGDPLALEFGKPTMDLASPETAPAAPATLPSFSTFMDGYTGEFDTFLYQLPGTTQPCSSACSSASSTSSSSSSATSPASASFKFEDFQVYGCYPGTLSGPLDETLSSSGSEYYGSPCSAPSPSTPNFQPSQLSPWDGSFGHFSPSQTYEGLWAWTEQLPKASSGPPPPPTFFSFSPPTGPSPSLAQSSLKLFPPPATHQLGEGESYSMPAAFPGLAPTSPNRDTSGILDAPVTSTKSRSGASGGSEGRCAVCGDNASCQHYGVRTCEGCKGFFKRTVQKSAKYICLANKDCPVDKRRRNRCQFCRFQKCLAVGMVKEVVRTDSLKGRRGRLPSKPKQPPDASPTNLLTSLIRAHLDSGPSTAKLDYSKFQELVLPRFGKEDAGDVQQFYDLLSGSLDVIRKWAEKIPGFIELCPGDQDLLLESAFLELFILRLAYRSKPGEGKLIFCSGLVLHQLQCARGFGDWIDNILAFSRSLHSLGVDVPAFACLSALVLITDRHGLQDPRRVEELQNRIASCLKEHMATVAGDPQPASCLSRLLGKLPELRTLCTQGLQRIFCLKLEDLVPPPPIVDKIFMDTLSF
UniProt P84022, residues 10-136: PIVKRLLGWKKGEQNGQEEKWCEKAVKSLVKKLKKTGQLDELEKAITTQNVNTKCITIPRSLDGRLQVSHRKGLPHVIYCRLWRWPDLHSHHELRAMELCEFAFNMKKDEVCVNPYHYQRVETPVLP

The experiment has as its target GST-Nur77 fusion protein (full-length Nur77) (UniProt P12813). The experiment can be described thus: pull-down; GST fusion proteins immobilised on glutathione-Sepharose-4B beads, incubated with [35S] methionine-labeled in vitro translated proteins in GST binding buffer (20 mM Tris pH 7.9, 150 mM NaCl, 10% glycerol, 0.05% NP-40, 5 mM MgCl2, 0.5 mM EDTA, 1 mM dithiothreitol, 1.5% BSA) overnight at 4°C; SDS-PAGE and autoradiography; only the target purified.

Results are given in words; binding and its absence hold for the method and conditions named. In cells and extracts the contact can be indirect. Some binding calls cover weakened binding; strength is not graded here.

As to “[35S] methionine-labeled Smad3 MH1 mutant (from UniProt P84022 10-136) (domain or fragment)”, the binding result is listed as “binds”.
